From PubChem BioAssay AID493014 (National Center for Advancing Translational Sciences (NCATS), 2011) come the findings set out here.

A short description of the test: qHTS Assay to Find Inhibitors of Chronic Active B-Cell Receptor Signaling. The settings on record: ABC-DLBCL IkBa-CBG/CBR reporter, luminescence ratio (green luciferase fused to IkBa over red control in TMD8 lymphoma cells), 4 h. The essentials:
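Concentration-response series (up to 46 uM) were applied to TMD8 dual-reporter cells for 4 h at 37C with doxycycline. Green/red ratio, after filter-overlap correction, defined %Activity; red signal alone was normalised to basal cells and zero luminescence.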

Where [1] appears, read: measured here: CBR red luminescence, cell number.
[2] abbreviates: measured here: IkBa-CBG green luminescence.

This is one part of the list. The main result of the screen is listed elsewhere. These columns were measured beside it and carry no call. Most of these compounds were active or inconclusive in the main read-out, so they are no random draw. Words in brackets tell the shape of the fitted curve; partial curves, single points and poor fits give uncertain potencies.

As usually defined, the AC50 is the concentration at which the activity in the assay is half-maximal. Turning to `CCN(CC)S(=O)(=O)c1ccc(C(=O)NCCOC(=O)c2ccc(F)cc2F)cc1`, the AC50 under setting [1] was 0.501 µM [rising, partial curve, poor fit].

`CCOc1ccc2c(c1)C(=O)c1cc(OCC(=O)O)ccc1-2`: the AC50 under setting [1] is 7.08 µM [falling, full curve, poor fit].

As for `O=C(c1ccccc1)N1CCN(CC#Cc2ccccc2)CC1`, the AC50 under setting [1] was 5.62 µM [rising, single point].

Turning to `CC1C/C(=N\NC(=O)c2cccnc2)CC(C)(C)C1` (stereo not given), under setting [1], the AC50 was 35.5 µM [falling, single point].

Take `CCOc1cccc(-c2c(C(=O)N/N=C/c3cccs3)nnn2-c2nonc2N)c1`: the AC50 under setting [1] is 10 µM [falling, partial curve, poor fit].

Consider `N#Cc1ccc(CSC2=NCCN2)cc1`, for which the AC50 under setting [1] was 35.5 µM [falling, single point].

As to `CCOc1cc(C(=O)Nc2ccc3c(c2)OCO3)ccc1OC(F)F`, the AC50 under setting [1] is 0.224 µM [rising, full curve, poor fit].

`Cn1nc(-c2ccc(Cl)cc2)c2cc(C(=O)NCCCN3CCCC3)sc21`: the AC50 under setting [1] was 29.1 µM [falling, single point].

`CC(C(=O)Nc1ccccc1)N1CCN(c2ccccn2)CC1` (stereo not given): the AC50 under setting [1] was 0.112 µM [rising, full curve, poor fit].

Take `CCN(CC)CCOC(=O)c1ccc(NC(=O)c2ccc(Cl)c(S(=O)(=O)N3CCCCCC3)c2)cc1`: the half-maximal activity concentration (AC50) under setting [1] was 14.1 µM [falling, single point].

Take `NC(=O)C1CCN(C(=O)CSCc2ccccc2Cl)CC1`: the concentration at half-maximal activity (AC50) under setting [1] is 3.98 µM [falling, partial curve, poor fit].

In the case of `O=C(NC(=O)c1ccccc1)NC1(C(F)(F)F)OCCO1`, the AC50 under setting [1] is 0.891 µM [rising, full curve, poor fit].

For the molecule `Cc1ccc(S(=O)(=O)N2CC(=NN=C(N)N)C2)cc1`, the AC50 under setting [1] is 35.5 µM [falling, partial curve, poor fit].

In the case of `COc1ccccc1OCC(=O)Nc1ccccn1`, the AC50 under setting [1] is 8.91 µM [falling, partial curve, poor fit].

Consider `O=[N+]([O-])c1ccc(N/N=C/c2cccc(O)c2)cc1`, for which the AC50 under setting [1] was 31.6 µM [falling, single point].

Consider `CCn1c2ccccc2c2cc(NC(=O)CSc3nnc(-c4ccccc4OC)n3N)ccc21`, for which the AC50 under setting [1] was 35.5 µM [falling, partial curve, poor fit].

`Cc1occc1-c1nnc(SCC(=O)Nc2ccccc2)n1C`: under setting [1], the AC50 is 35.5 µM [rising, single point].

On to `Cc1ccc(C(C)C)cc1OCCOCCN1CCCC1`, for which the AC50 under setting [1] was 1.46 µM [rising, partial curve, poor fit].

`Cc1cc(/C([O-])=C(/C(=S)Nc2ccc(F)cc2)[n+]2ccccc2)c(C)n1Cc1ccccc1Cl`: the AC50 under setting [1] is 3.55 µM [falling, partial curve, poor fit].

`O=C(N/N=C/c1cnc2ccccc2n1)c1cccc(F)c1`: the AC50 under setting [1] is 14.6 µM [falling, partial curve, poor fit].

For `Cc1ccc2oc(C(=O)N(CCO)Cc3ccccc3)c(C)c2c1`, under setting [1], the AC50 is 25.1 µM [rising, single point].

On to `CCC(=O)Nc1cccc(NC(=O)c2ccc(C)c([N+](=O)[O-])c2)c1`, for which the half-maximal activity concentration (AC50) under setting [1] was 11.2 µM [falling, partial curve].

Turning to `Cc1cc(NC(=O)c2ccc(S(=O)(=O)N3CCOCC3)cc2)nc2c1c(=O)oc1ccccc12`, the AC50 under setting [1] is 0.631 µM [falling, full curve, poor fit].

`Cn1c(=O)c2c(nc(Oc3ccccc3N)n2C)n(C)c1=O`: under setting [1], the AC50 was 17.8 µM [falling, single point].

Regarding `O=C(O)CCC/C=C\C[C@@H]1[C@@H](/C=C/[C@@H](O)COc2cccc(Cl)c2)[C@H](O)C[C@@H]1O`, the AC50 under setting [1] is 9.2 µM [rising, partial curve].

For `O=C(C[n+]1ccc(C(=O)NCc2ccccc2)cc1)c1ccc(Cl)cc1`, the AC50 under setting [1] is 4.47 µM [falling, single point].

For `CCOC(=O)C1CCN(c2c(C(=O)c3ccccc3)cnc3ccc(CC)cc23)CC1`, the AC50 under setting [1] was 0.708 µM [rising, full curve, poor fit].

As for `CC(C)OC(=O)c1c(F)c(F)c(N2CCOCC2)c(F)c1F`, under setting [1], the AC50 is 10 µM [rising, partial curve, poor fit].

As for `COc1ccccc1C(=O)N1CCN(c2cccc(Cl)c2)CC1`, the AC50 under setting [1] is 14.1 µM [rising, single point] and the concentration at half-maximal activity (AC50) under setting [2] is 17.8 µM [falling, partial curve, poor fit].

Consider `COc1ccc(-c2sc3cc(OC)c(OC)cc3c2C#CCCO)cc1`, for which the AC50 under setting [1] is 11.6 µM [rising, partial curve, poor fit].

`S=C(NCCCc1ccccc1)Nc1ccc(Br)cc1`: the AC50 under setting [1] was 35.5 µM [falling, single point].

With `CN(c1ccccc1)c1nc(N)c([N+](=O)[O-])c(Nc2cccc(F)c2)n1`, the AC50 under setting [1] is 2.82 µM [rising, full curve].

In the case of `CCc1ccc2[nH]c(=O)c(CN(Cc3nnnn3C3CCCC3)C3CCCCC3)cc2c1`, the AC50 under setting [1] was 35.5 µM [rising, partial curve, poor fit].

Take `O=S(=O)(/C(=C/c1ccc(C(F)(F)F)cc1)c1nc2ccccc2[nH]1)c1ccccc1`: the AC50 by setting is: under setting [1], 18.4 µM [falling, partial curve]; under setting [2], 18.4 µM [rising, single point].

In the case of `Cc1cccc(NC(=O)/C(C#N)=C\c2cn(CC(=O)O)c3ccccc23)c1`, the AC50 under setting [1] was 14.1 µM [falling, partial curve, poor fit].

As to `COc1ccc(Br)cc1CNC(=O)Nc1cccs1`, the AC50 under setting [1] is 29.1 µM [falling, single point].

With `O=CC(=O)c1ccccc1`, under setting [1], the AC50 was 2.06 µM [falling, full curve, poor fit].

Turning to `CC(C)/C(=N/Nc1ccccc1[N+](=O)[O-])c1ccccc1`, the AC50 under setting [1] was 11.2 µM [rising, single point].

`Fc1ccc(-n2cc(CNCCc3ccncc3)c(-c3ccccc3Cl)n2)cc1`: the AC50 under setting [1] was 2.24 µM [falling, partial curve, poor fit].

On to `CCN(CC)CCOC(=O)C12CC3CC(CC(C3)C1)C2`, for which the half-maximal activity concentration (AC50) under setting [1] was 3.16 µM [rising, full curve, poor fit].

For `COCCN(C(=O)COC(=O)c1ccc(C)s1)c1c(N)n(Cc2ccccc2)c(=O)[nH]c1=O`, the AC50 under setting [1] was 32.6 µM [rising, partial curve, poor fit].

As to `O=C(/C=C/c1ccc2c(c1)S(=O)(=O)N(Cc1ccccc1)[C@H]2CC(=O)N1CCOCC1)N1CCOCC1`, the AC50 under setting [1] is 4.11 µM [rising, full curve, poor fit].

For `Oc1ccc(/C=N/NC(=S)Nc2cccnc2)cc1O`, under setting [1], the concentration at half-maximal activity (AC50) is 20.6 µM [falling, single point].

As for `CNc1ccccc1C(=O)OCC(=O)Nc1ccc2c(c1)OCO2`, the AC50 under setting [1] was 13 µM [falling, partial curve, poor fit].

With `CCOC(=O)CNC(=O)CN1CCCN(S(=O)(=O)c2ccc(Br)s2)CC1`, the AC50 under setting [1] was 6.31 µM [rising, single point].

Take `Nc1nc(N2CCCCC2)nc(N2CCCCC2)n1`: the AC50 under setting [1] was 8.2 µM [rising, partial curve, poor fit].

Regarding `CNC(=O)c1cc(S(=O)(=O)N(C)C)ccc1Cl`, the AC50 under setting [1] is 20.6 µM [rising, single point].

For `CCOC(=O)c1[nH]c(C)c(C(=O)Nc2ccc3c(c2)CCC3)c1C`, under setting [1], the AC50 is 6.31 µM [rising, partial curve].

With `O=C(N/N=C1\CCCc2ccccc21)C(O)c1ccccc1` (stereo not given), the AC50 under setting [1] is 35.5 µM [falling, single point].

Turning to `O=C(O)c1cccc(Nc2c([N+](=O)[O-])c(=O)oc3ccccc23)c1`, the AC50 under setting [1] is 7.94 µM [falling, partial curve].

Turning to `c1cc(SC2CCCCC2)cc(-c2nc3cnccn3c2NC2CCCCC2)c1`, the AC50 under setting [1] was 3.26 µM [falling, partial curve, poor fit].

For the molecule `COC(=O)c1c(C)[nH]c(C(=O)CN2C(=O)C3CC=CCC3C2=O)c1C` (stereo not given), under setting [1], the concentration at half-maximal activity (AC50) is 20.6 µM [falling, partial curve, poor fit].

With `Cc1cccc(Cl)c1OCCCn1ccnc1`, the AC50 under setting [1] is 15.8 µM [rising, partial curve, poor fit].

As to `O=C(NNC(=O)c1ccc[nH]1)c1cccc(C(F)(F)F)c1`, the AC50 under setting [1] is 3.98 µM [rising, single point].

Take `CCOc1cccc(C2C(C#N)=C(N)Oc3cc(C)[nH]c(=O)c32)c1OCC` (stereo not given): the AC50 under setting [1] is 10 µM [rising, partial curve].

`CC1(C)Cc2c(c(N3CCOCC3)nc3sc4c(=O)[nH]cnc4c23)CS1`: the AC50 under setting [1] is 10 µM [rising, partial curve].

`COc1cccc(/C=N/NC(=O)c2c(C)nc3ccc(Br)cn23)c1`: the AC50 under setting [1] was 15.8 µM [falling, single point].

For the molecule `CC(=O)N1CCN(C(=S)c2ccc(-c3ccc(Cl)cc3)o2)CC1`, under setting [1], the AC50 was 3.98 µM [rising, full curve, poor fit].

With `CCc1nc(SCC(=O)c2ccccc2)c2c(=O)n(C)c(=O)n(C)c2n1`, the AC50 under setting [1] was 3.55 µM [falling, partial curve, poor fit].

As to `O=C(N/N=C/c1cc(Cl)ccc1O)c1ccccc1Br`, the AC50 under setting [1] is 3.55 µM [falling, partial curve, poor fit].

Take `Cn1c(=O)c2c(nc(NCc3ccc4c(c3)OCO4)n2C)n(C)c1=O`: the AC50 under setting [1] was 3.26 µM [falling, single point].

For `CC[C@@H](C(=O)[C@@H](C)[C@@H](O)[C@H](C)CCc1ccc(C)c(O)c1C(=O)O)[C@H]1O[C@](CC)([C@H]2CC[C@](O)(CC)[C@H](C)O2)C[C@@H]1C`, the AC50 under setting [1] was 14.1 µM [rising, single point].

For `Cc1ccc(C(=O)COC(=O)c2ccc(O)cc2)cc1`, the AC50 under setting [1] was 15.8 µM [falling, partial curve, poor fit].
